Measured values taken from PubChem BioAssay AID1347423 (Functional Genomics Laboratory (NCATS/FGL), 2020).
Hit rate of the full screen: of about 52,000 sequences, about 210 (0.4%) were called active.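 How the source made its calls: active means gene whose silencing raises cell survival under the drug, median off-target-corrected z-score across its silencing RNAs 2 or more; inactive means the rest.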 The list shows a part of the results.

Experiment: Resistance to Poly (ADP-Ribose) Polymerase inhibitor: Gene Identification via Genome-wide siRNA Screen
Conditions: mouse BRCA2 R2336H ES cells, olaparib, CellTiter-Glo viability; stronger effect = higher value
Procedure, shortened: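 Genome-wide siRNA screen (3 siRNAs/gene, 20 nM) in mouse ES cells carrying hypomorphic BRCA2 R2336H; olaparib 500 nM added 48 h post-transfection, CellTiter-Glo viability 72 h later. Normalized to plate-median negative control; MAD z-scores, gene median, seed-adjusted.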
For GCAAGUUCAUUAAACCAUATT against Rec8L1, the z-score was inactive: 1.09. In the case of “CGGAUUGACAAGUUUGCUATT against 0610039G24Rik”, the z-score is reported as inactive: -0.071. With CCAUCUUGACACCCAAACUTT against Olfr170 the z-score was inactive: -0.137. With CCGAGUUUGGGAAUAACUUTT against Cacna1a the z-score was inactive: -1.67. For CCUACAUCACACCUUGAUATT against Olfr1309, the z-score was inactive: -0.495. For GGCAGGUGAACAUCACAGUTT against AW742319, the z-score was inactive: -0.0276. With GGAACAGAGUGUCCACAAUTT against Apof the z-score was inactive: 0.919. With GCUUUGUAGGAGUUUUUAATT against Rhoq the z-score was inactive: 0.168. For GGUGCUACGGGACAUUGAGTT against Suv420h2, the z-score was inactive: -1.79. For GGGCAGUGAAAUCCUGUCUTT against Trim16, the z-score was inactive: -1.35. For GGUUUACAAAAAUUCUCAGTT against Hcn1, the z-score was inactive: 0.856. With UUAAGGAAAUGUUCUGUUCTT against Olfr426 the z-score was inactive: -0.546. For GCCAUUGUACAGCUACCAUTT against Figla, the z-score was inactive: -0.242. For GGAAAGAAUAGCAGCGUGGTT against Echs1, the z-score was inactive: 0.533. With GGAGAUGGGUGUCUUGGAGTT against LOC208943 the z-score was inactive: -1.29. In the case of CCUUAAGUUAGCUUUAGUUTT against Pop4, the z-score is reported as inactive: 0.0497. For CCAACGUAAGAAAUUCAGATT against Smoc1, the z-score was inactive: 0.0872. With GGAAAGUCGUCGUAACUAUTT against Dnajc4 the z-score was inactive: 0.798. For GGAGGACAUGGACACAGUCTT against Slc39a7, the z-score was inactive: -2.14. In the case of “CCAGUUACGUUAAAAGCUUTT against D1Bwg0491e”, the z-score is reported as inactive: 0.00475. With GCUGGGUUUACCUUCCUGATT against Olfr601 the z-score was inactive: -2.19. In the case of GCUUCCCUGCCGUGAUGAUTT against Git1, the z-score is reported as inactive: -0.17. For GGGUCUUAUCUCGAUGAGGTT against Flt3l, the z-score was inactive: 0.316. For GCAACUUGGGAACUCUUUGTT against BC027342, the z-score was inactive: 0.403. For CCAACAACGGCAUUCACUATT against Ebf3, the z-score was inactive: 0.4. For AAAAAACAGCACCCUGAUGTT against Olfr204, the z-score was inactive: 0.273. With GGACAAAGACAAACUUUAATT against Scn4a the z-score was inactive: -0.856. In the case of GCUUUCCUGUGCUCCAACGTT against Olfr527, the z-score is reported as inactive: -0.3. In the case of GGCAAAUGGAAAAUUCUGCTT against Rnf12, the z-score is reported as inactive: -0.843. For GGAUAAGAGACAAUGAAUUTT against Fut7, the z-score was inactive: 0.928. For GGCCCUGUAUUUCUCUGACTT against Plat, the z-score was inactive: -0.323. In the case of CCAAGUGUAUUUCACAUAATT against F2r, the z-score is reported as inactive: -0.313. In the case of GGUGGUCUAAGUCCUGACATT against Hmx1, the z-score is reported as inactive: -0.564. With “GGUAGAUUCUAAUUGUUCATT against 5730536A07Rik” the z-score was inactive: 0.933. For “GCUUGCUUCGCCUACAUUGTT against 1200006F02Rik”, the z-score was inactive: -0.0338. In the case of GCCCACUUUCUAGGUAGUUTT against Olfr703, the z-score is reported as inactive: -1.14. For GCAUGAGGAAAAAUCUUCATT against Neurod4, the z-score was inactive: 0.314. With GCUCUUUCAACAUGUAGUUTT against Olfr1180 the z-score was inactive: 0.422. With CCCGACACCAGUGGUAAAATT against Gluld1 the z-score was inactive: -0.721. For GUCCUGAAAAUGCUAUUCUTT against Olfr68, the z-score was inactive: 1.09. For GCUAUCAUUAACAACAAAGTT against Olfr808, the z-score was inactive: 0.663. In the case of CGAUAUGAUGACAAAUCAGTT against Pik3ap1, the z-score is reported as inactive: 0.273. With GGAAUGAGCUCGAUUAUAATT against Nrip1 the z-score was inactive: 0.467. For GGAGAGCAUUCCCAUUGCUTT against Ddx6, the z-score was inactive: -0.664. With GGAAGCACCCACAAAACCUTT against Barx2 the z-score was inactive: -0.668. With GCUAAAAAAGCUUCUUCAUTT against Gypc the z-score was inactive: 0.765. With GGAAGGAGAAUGGUACUGGTT against Cd209e the z-score was inactive: 1.42. For “GGGUAAGAACUUAUUAUUCTT against 5730461K03Rik”, the z-score was inactive: 0.659. With GGAUCUUUUAGCUAACCUATT against Tesk2 the z-score was inactive: 0.758. With “GGCAAGUUAAUGGAUCAAATT against 6330415F13Rik” the z-score was inactive: 1.04. With “CCCAUCCAAGAUUUGAUUUTT against 2310002L09Rik” the z-score was inactive: 0.176. In the case of GGAGACACAUAGGUGUAAATT against H2-T23, the z-score is reported as inactive: 0.596. For CCAGCUUUUACCUAAUACCTT against Ggt1, the z-score was inactive: -0.685. In the case of GGUGACAAAGAAAACAACATT against Il12rb2, the z-score is reported as inactive: 0.108. For “GGCACUCAGCAAGAUUGUATT against 2310073E15Rik”, the z-score was inactive: -1.16. For “GGGAGAGGACGACCUAAAATT against 4921524J17Rik”, the z-score was inactive: -0.0281. In the case of GGCAUGAAUGGGAUACAUGTT against Srpk2, the z-score is reported as inactive: -0.208. For GGAGCUUUGAAGAGACUGGTT against Olfr117, the z-score was inactive: -1.77. In the case of GCGAGUGUAUAAUAUUCCUTT against Blnk, the z-score is reported as inactive: -0.783. For “GGUUUUUUUGCUAAUUAGCTT against 3110023E09Rik”, the z-score was inactive: 0.475. For “AACUGGACCACGGUACCAATT against A330070K13Rik”, the z-score was inactive: -1.16. With GGAAGAAAAAGAGGACACATT against Prkwnk4 the z-score was inactive: 0.133. In the case of AAAUGAUAUCAAUAAAAUATT against MGC78233, the z-score is reported as inactive: -0.176. With GGCUCUGCCAUUUUCCCUUTT against F12 the z-score was inactive: 0.273. For “GCACACCGUUUACCCUACCTT against 9830130M13”, the z-score was inactive: 0.41. For GCAUACCUAGGAAAAAACUTT against Ednra, the z-score was inactive: 0.796. For GCUUCUUACUGAUUGAUUGTT against Mgrn1, the z-score was inactive: 0.324. For GGUGAUAAUUAAUGUCUUGTT against Birc1a, the z-score was inactive: 1.92. For GGAAGUAAUCAAGAAAUCATT against Gpx4, the z-score was inactive: 0.121. For “GGCUGUCUUCUGAUCAAUUTT against 6330442E02Rik”, the z-score was inactive: 0.47. In the case of “GCUGUUAAGGAAGGCGGACTT against D19Bwg1357e”, the z-score is reported as inactive: 0.833. In the case of GGUCUAACGAGUUCAAAAATT against Brpf1, the z-score is reported as inactive: 1.06. With GGAUCCAUUUUGAGGAUUUTT against Vipr1 the z-score was inactive: 0.716. With “GGUGGGAAGAUAGAUAAAATT against 5430432N15Rik” the z-score was inactive: -0.654. With CCAGUGUUCUUACCUGGUGTT against Sesn2 the z-score was inactive: 0.819. For GGAACAAAUUCUGGAGUUGTT against Zfp287, the z-score was inactive: 0.225. For GCCCAGUUCAACGGUGAAUTT against Zbtb1, the z-score was inactive: 0.15. In the case of GGUGUUUGAUAGGUAUCUUTT against Ppp2r4, the z-score is reported as inactive: 0.179. For GUUUUUCAUACAGUAGUAGTT against V1rc33, the z-score was inactive: -1.67. With GGGUUACCAGACUAACAAATT against Stfa3 the z-score was inactive: -1.02. With GGUUCCAGUCUUUAAUUUCTT against Tpst1 the z-score was inactive: 0.308. In the case of GGUGACCAGCUCCAUUUCUTT against Wisp2, the z-score is reported as inactive: 0.818. For “GCACUUAUGGCCAUUUCAGTT against 2610318K02Rik”, the z-score was inactive: -1.58. For GGGUCAAACCCAUACAGCUTT against Wdr22, the z-score was inactive: 0.181. For GGUGUCCAAUAUUUUGAAGTT against Zfp120, the z-score was inactive: 0.287. With CCCGGAUCUUUUCCUUACATT against Klf1 the z-score was inactive: 1.52. With “GGUAGUCUUGACCCAAAAGTT against 3230401K02Rik” the z-score was inactive: 0.405. In the case of GGACUCUGAUCUCUAUCAGTT against Tac2, the z-score is reported as inactive: 0.00988. For CCAUACAGGGUUAGCUCAUTT against LOC382243, the z-score was inactive: 0.311. For GGUAUUUAGUAAACACCCATT against Edar, the z-score was inactive: 0.782. In the case of GGAAGUAAACCUUCAUGAATT against Tnfsf5, the z-score is reported as inactive: 1. For GGCUAUGAAUCCAGAGCUUTT against Unc84a, the z-score was inactive: -0.556. In the case of GGGACUCAACCUAUAUCUUTT against Gnpat, the z-score is reported as inactive: 0.00266. For GGAAGAGCAUAUGGAAGACTT against Nxf7, the z-score was inactive: 0.958. In the case of “GGAAAAUUGCAUGAGGGUUTT against E330026B02Rik”, the z-score is reported as inactive: -1.47. With GGAAAACUUGAAGACAGAUTT against Zfp291 the z-score was inactive: -0.914. In the case of GGAACAUAAUGCAUUACCCTT against Nr1d2, the z-score is reported as inactive: 1.38. In the case of GGUGAAAUUACAGCAUUGUTT against Otx1, the z-score is reported as inactive: -0.695. For “GGACUUGGAAGUAAUUUUCTT against C230071H18Rik”, the z-score was inactive: 2.75. For GGUGUGUGCUUCAUCUAAATT against Smpdl3a, the z-score was inactive: 0.147. For GGCAGAGCAGUUUUCCUCATT against Kcna4, the z-score was inactive: -2.29. For GGAAUAACAGAUCAUACAGTT against Olfr194, the z-score was inactive: 0.331. With GGAAUCUGCUUUCAGCUUGTT against Olfr1044 the z-score was inactive: 1.3. In the case of GGGCAUCAAACCUACUGUCTT against Bat2, the z-score is reported as inactive: 0.44.
